Values from PubChem BioAssay AID743454 (Peter MacCallum Cancer Centre, 2014)
This is a random part of about 18,000 reagents. 450 of them (2.5%) were called active. 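Single biological run; no consistent viability z cut-off exists, so the class columns, not z-scores, define the calls.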 Entries without a mark were called inactive. The numbers tell different reagents against one gene apart.

Aim: 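Knock-downs lowering viability or raising caspase 3/7 activity in vorinostat-treated resistant cells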 (primary screen)
Cell system: human HCT116-VR colon cancer cells, selected for vorinostat resistance
Reagent: siRNA pool against human genes, 40 nM siRNA pool
Duration: vorinostat for 24 h, read-out about 72 h after transfection
Challenge: vorinostat at 2.5 µM final
Detection: 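Cell viability by CellTiter-Fluor and caspase 3/7 activity by luminescence, each scaled to mock wells per plate, duplicates averaged, then robust z-scored over all plates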
Scale: viability robust z-score: higher = more viable cells than screen typical; caspase robust z-score: higher = more caspase 3/7 activity than screen typical
Hit rule: 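a knock-down is a hit when classed RV1 or RV2 for lowered viability, or CA1 or CA2 for caspase activation; those lethal without drug were dropped; hits were retested singly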

gene knocked down | reagent no. | viability hit class | caspase hit class | viability robust z-score | caspase robust z-score
GRIK1 | 1 | no change | no change | 0.53 | 0.51
ROGDI | 1 | no change | no change | 0 | -0.31
CD59 | 1 | no change | no change | 0.42 | 2.07
GSK3B | 1 | no change | no change | 0.48 | -0.54
WFDC12 | 1 | no change | no change | -0.51 | 0.32
TMEM190 | 1 | no change | no change | -0.6 | -0.48
RP1L1 | 1 | no change | no change | -0.57 | -0.52
HERC6 | 1 | no change | no change | -0.45 | -0.82
NIFK | 1 | no change | no change | -2.47 | 0.4
NUP205 | 1 | RV2 (reduced viability) (active) | no change | -3.88 | 3.34
CD84 | 1 | no change | no change | 0.26 | -0.52
CYB561A3 | 1 | no change | no change | 0.05 | 0.6
CYP1B1 | 1 | no change | no change | -3.31 | 1.74
TIRAP | 1 | no change | no change | -0.5 | -0.26
ZNF324 | 1 | no change | no change | -1.76 | 3.05
ZNF438 | 1 | no change | no change | -0.92 | 3.88
LRRC63 | 1 | no change | no change | 0.18 | -0.17
ZNHIT2 | 1 | no change | no change | -0.3 | 0.09
XPO4 | 1 | no change | no change | -1.4 | 1.64
REEP4 | 1 | no change | no change | -1.4 | 0.55
MICAL2 | 1 | no change | no change | -0.7 | -0.9
MICAL2 | 2 | no change | no change | 0.54 | -0.22
ENPP5 | 1 | no change | no change | -1.86 | 3.36
SUGT1P4-STRA6LP-CCDC180 | 1 | no change | no change | -0.66 | 1.87
DRD3 | 1 | no change | no change | -0.49 | -0.28
NPC1L1 | 1 | no change (active) | CA1 (caspase activation) | -1.51 | 5.8

The list goes on (8 carried over from the part before).
gene knocked down | reagent no. | viability hit class | caspase hit class | viability robust z-score | caspase robust z-score
XPO4 | 1 | no change | no change | -1.4 | 1.64
REEP4 | 1 | no change | no change | -1.4 | 0.55
MICAL2 | 1 | no change | no change | -0.7 | -0.9
MICAL2 | 2 | no change | no change | 0.54 | -0.22
ENPP5 | 1 | no change | no change | -1.86 | 3.36
SUGT1P4-STRA6LP-CCDC180 | 1 | no change | no change | -0.66 | 1.87
DRD3 | 1 | no change | no change | -0.49 | -0.28
NPC1L1 | 1 | no change (active) | CA1 (caspase activation) | -1.51 | 5.8
CHRNE | 1 | no change | no change | 0.98 | 0.58
CDC37L1 | 1 | no change | no change | 0.17 | 0.05
ZEB1 | 1 | no change | no change | 0.7 | 0.05
CRIP3 | 1 | no change | no change | -1.01 | 0.92
CCL1 | 1 | no change | no change | -0.16 | -0.4
HOXD1 | 1 | no change | no change | -0.7 | -0.29
CCDC159 | 1 | no change | no change | -1.25 | -0.3
OR7D2 | 1 | no change | no change | 0.66 | 0.01
NBPF1 | 1 | no change | no change | 1.44 | 1.2
SLC45A4 | 1 | no change | no change | 0.03 | -0.95
TIMM17B | 1 | no change | no change | -0.09 | 2.42
RHOF | 1 | no change | no change | 0.86 | 0.02
PCDHB10 | 1 | no change | no change | 1.17 | -0.52
WWP1 | 1 | no change | no change | -0.81 | -1
ATR | 1 | no change | no change | -0.38 | -0.46
DDB2 | 1 | no change | no change | 0.87 | -0.6
KRTAP4-11 | 1 | no change | no change | -0.77 | 3.33
SF3B4 | 1 | no change | no change | -2.46 | 2.37
MAPKAPK3 | 1 | no change | no change | 0.04 | 0.8
LUC7L3 | 1 | no change | no change | -1.46 | -1.44
CORO1C | 1 | no change | no change | -1.36 | 3.88
RNPEPL1 | 1 | no change | no change | 0.48 | 0.68
ALDH6A1 | 1 | no change | no change | 0.98 | -0.63
NOP16 | 1 | no change | no change | -2.53 | 0.22
TMEM117 | 1 | no change | no change | 0.56 | -0.5
ANO3 | 1 | no change | no change | -1 | -1.34
KCNA6 | 1 | no change | no change | -1.76 | 0.26
RMDN3 | 1 | no change | no change | 1.5 | 1.81
BRWD1 | 1 | no change | no change | 1.01 | -0.55
CAMK2B | 1 | no change | no change | 0.4 | 2.7
EMX2 | 1 | no change | no change | -1.86 | 1.36
AS3MT | 1 | no change | no change | -1.32 | -1.13
GABARAPL2 | 1 | no change | no change | 1.05 | -0.64
IFNW1 | 1 | RV2 (reduced viability) (active) | CA2 (caspase activation) | -3.78 | 5.69
TMEM248 | 1 | no change | no change | 0.32 | -1.03
ILK | 1 | no change | no change | 0.2 | -0.48
ILK | 2 | no change | no change | -1.58 | -0.46
TM4SF19 | 1 | no change | no change | -0.45 | -0.24
PDX1 | 1 | no change (active) | CA1 (caspase activation) | -1.72 | 6.03
GUK1 | 1 | no change | no change | -0.38 | -0.98
NKIRAS1 | 1 | no change | no change | 0.4 | 0.68
RANBP1 | 1 | no change | no change | -0.34 | -0.92
CTR9 | 1 | no change | no change | -0.45 | 0.15
ADAP2 | 1 | no change | no change | -0.52 | -0.18
PTPA | 1 | no change | no change | -0.77 | 0
S100A16 | 1 | no change | no change | 0.48 | -0.9
CTSO | 1 | no change | no change | -0.12 | -0.27
